Screen size: about 300,000 compounds; about 5,200 (1.7%) were called active. This list was built around the results that the source calls inconclusive (neither active nor inactive); the mix of calls is not that of the screen.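 The calls were made as follows: active = mean replicate activation of at least 50% with a set share of replicates each reaching 50%; inconclusive = only one of those two conditions met; inactive = mean below 50% and too few replicates reaching it.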
Assay: HSF-1 activators, primary screen, NIH3T3-HGL cells, MG132 stress, luminescence, single point (AID 504408);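 also: 0% = median of the neutral control wells and 100% = twice that signal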
Settings: NIH3T3-HGL HSF-1 luciferase reporter, MG132, 8 h; at 9 µM; active compounds read high; 100% = twice DMSO control signal

SMILES | activation
C=CCN1C(=O)c2ccc(C(=O)NCCc3ccc(F)cc3)cc2C1=O | inactive: 5.96%
CCC(Sc1nc2cc3c(cc2c(=O)n1Cc1ccco1)OCO3)C(=O)NCCOC (centres undefined) | inconclusive: 50%
Clc1ccccc1-c1nnc(-c2ccccc2Cl)o1 | inconclusive: 54.9%
Cc1ccc(C)c(NC(=S)Nc2ncccc2C)c1 | inconclusive: 79.5%
COc1ccc(NS(=O)(=O)c2cccc(C(=O)N(C)Cc3ccc(SC)cc3)c2)cc1 | inconclusive: 52.4%
COc1ccc(C(=O)Nc2ccc(Cl)c(Cl)c2)c(OC)n1 | inconclusive: 50.4%
CCn1c(SCC(=O)c2cccs2)nnc1-c1cccs1 | inconclusive: 51.8%
O=C(c1cc(COc2ccc(F)cc2Cl)on1)N1CCCCCC1 | active: 60.1%
CCOc1ccc(N2C(=O)CC(Sc3nnnn3-c3ccccc3)C2=O)cc1 (centres undefined) | inconclusive: 58.2%
Cc1ccc2c(CC(=O)N3CCc4ccccc43)coc2c1 | active: 77.1%
O=C(COC(=O)c1ccccc1Br)Nc1cc(S(=O)(=O)N2CCOCC2)ccc1N1CCCC1 | inconclusive: 53.4%
CCC(C)NC(=O)Cc1c(OC)ccc2cc(Br)ccc12 (centres undefined) | active: 62.3%
COC(=O)C1CCN(Cc2ccc(OCCCN3CCN(c4ccc([N+](=O)[O-])cc4)CC3)cc2)CC1 | inactive: 10.5%
CCOC(=O)c1c(NC(=S)NCc2ccccc2)sc2c1CCN(C(=O)OCC)C2 | active: 72.4%
COc1ccc(OCC(=O)Nc2ccc3c(c2)nc(CCN2CCCC2)n3C)cc1 | inactive: 1.14%
Cc1ccc(C2=NN(C(=O)CCl)C(c3cccs3)C2)o1 (centres undefined) | active: 58.4%
COc1ccc(OCCN2C(=O)c3cccc(N)c3C2=O)cc1 | active: 59.2%
C/C(=N\NC(=O)c1ccc(CN2CCc3ccccc3C2)cc1)c1ccccc1O | inconclusive: 56.4%
CNc1sc(C(=O)c2cccs2)c(N)c1-c1nc2ccccc2s1 | inactive: 35.2%
CCOC(=O)c1c(C)[nH]c(C(=O)Nc2ccc(C)c(Cl)c2)c1C | active: 63.3%
Cc1nc2ccc(NC(=S)NC3CCCCC3)cc2nc1C | inconclusive: 53.2%
COc1cccc(N=c2oc3ccc(OC)cc3cc2-c2nc3ccccc3[nH]2)c1 | active: 53.8%
CC1=CC(=C(C#N)c2nc3ccccc3s2)C=C(C)N1c1ccc(F)cc1 | inactive: -29.5%
O=S1(=O)N[C@H](c2ccccc2)C[C@H](c2ccc(C(F)(F)F)cc2)O1 | inactive: -66.7%

No new results follow: an excerpt of the list.
SMILES | activation
C=CCN1C(=O)c2ccc(C(=O)NCCc3ccc(F)cc3)cc2C1=O | inactive: 5.96%
CCC(Sc1nc2cc3c(cc2c(=O)n1Cc1ccco1)OCO3)C(=O)NCCOC (centres undefined) | inconclusive: 50%
Clc1ccccc1-c1nnc(-c2ccccc2Cl)o1 | inconclusive: 54.9%
Cc1ccc(C)c(NC(=S)Nc2ncccc2C)c1 | inconclusive: 79.5%
COc1ccc(NS(=O)(=O)c2cccc(C(=O)N(C)Cc3ccc(SC)cc3)c2)cc1 | inconclusive: 52.4%
COc1ccc(C(=O)Nc2ccc(Cl)c(Cl)c2)c(OC)n1 | inconclusive: 50.4%
CCn1c(SCC(=O)c2cccs2)nnc1-c1cccs1 | inconclusive: 51.8%
O=C(c1cc(COc2ccc(F)cc2Cl)on1)N1CCCCCC1 | active: 60.1%
CCOc1ccc(N2C(=O)CC(Sc3nnnn3-c3ccccc3)C2=O)cc1 (centres undefined) | inconclusive: 58.2%
Cc1ccc2c(CC(=O)N3CCc4ccccc43)coc2c1 | active: 77.1%
O=C(COC(=O)c1ccccc1Br)Nc1cc(S(=O)(=O)N2CCOCC2)ccc1N1CCCC1 | inconclusive: 53.4%
CCC(C)NC(=O)Cc1c(OC)ccc2cc(Br)ccc12 (centres undefined) | active: 62.3%
COC(=O)C1CCN(Cc2ccc(OCCCN3CCN(c4ccc([N+](=O)[O-])cc4)CC3)cc2)CC1 | inactive: 10.5%
CCOC(=O)c1c(NC(=S)NCc2ccccc2)sc2c1CCN(C(=O)OCC)C2 | active: 72.4%
COc1ccc(OCC(=O)Nc2ccc3c(c2)nc(CCN2CCCC2)n3C)cc1 | inactive: 1.14%
Cc1ccc(C2=NN(C(=O)CCl)C(c3cccs3)C2)o1 (centres undefined) | active: 58.4%
COc1ccc(OCCN2C(=O)c3cccc(N)c3C2=O)cc1 | active: 59.2%
C/C(=N\NC(=O)c1ccc(CN2CCc3ccccc3C2)cc1)c1ccccc1O | inconclusive: 56.4%
CNc1sc(C(=O)c2cccs2)c(N)c1-c1nc2ccccc2s1 | inactive: 35.2%

(continued)

SMILES | activation
Cc1oc2ccc(OC(=O)N3CCOCC3)cc2c1C(=O)OC(C)C | inactive: 1.8%
CC(=C/c1ccccc1)/C=N/NC(=O)c1ccc2nc[nH]c2c1 | inactive: -0.441%
Cc1ccc(-c2[nH]ncc2C(=O)c2cccc(F)c2)c(O)c1 | inconclusive: 56.1%
S=C(Nc1cccc(Cl)c1)N(CCCN1CCCC1)Cc1cccn1Cc1ccc(Cl)cc1 | inconclusive: 68.6%
CNC(=S)N(Cc1ccco1)Cc1cc2cc(OC)c(OC)cc2[nH]c1=O | active: 56.7%
CN(C)c1ccc(C(=O)OCC(=O)NCC2CCCO2)cc1 (centres undefined) | inconclusive: 51.7%
CCc1ccc(C(=O)Nc2cc3c(cc2Cl)OCCCO3)cc1 | inconclusive: 52%
Cc1ccc2cc3c(N)c(C(=O)N4CCOCC4)sc3nc2c1 | active: 67.1%
Cc1cccc(/C=C/C(=O)c2ccc([N+](=O)[O-])o2)c1 | inconclusive: 59.5%
COc1cc(C(=O)Nc2ccc(S(=O)(=O)N3CCc4ccccc43)cc2)cc(OC)c1OC | inconclusive: 53.9%
COc1ccc(-c2cc(=O)c3cc(OC)ccc3[nH]2)cc1 | inactive: 5.4%
Cc1scc(C(=O)NCc2ccco2)c1-c1ccccc1 | active: 63.5%
Cc1ccc(C(=O)c2ccc([N+](=O)[O-])cc2)cc1C | inactive: 20.7%
Cc1ccccc1Nc1nnc(SCC2CCCCO2)s1 (centres undefined) | inconclusive: 50.7%
Cc1ccc(CNC(=O)c2ccc(Cn3cc(-c4ccc(C)cc4)nc3-c3ccncc3)cc2)cc1 | inconclusive: 58.9%
C=CCOC(=O)C1=C(C)N=C2SCCC(=O)N2C1/C=C/c1ccccc1OC (centres undefined) | inconclusive: 52.2%
COc1ccc(C(C)=O)cc1COC(=O)C1CC(=O)N(Cc2ccccc2)C1 (centres undefined) | inactive: -7.69%
CCn1c(=O)cc(SCC(=O)Nc2ccc(C)cn2)c2ccccc21 | inconclusive: 51.5%
CCCC(=O)NC(c1ccc(N(C)C)cc1)c1ccc2cccnc2c1O (centres undefined) | inconclusive: 51.5%
COc1cc2[nH]c(=S)nc(NCc3ccc(Cl)cc3)c2cc1OC | inconclusive: 52.7%
NCCCCCc1nnc(SC/C=C/c2ccccc2)o1 | active: 97.2%
COCCN(CCOC)c1ncnc2c1cnn2-c1ccccc1 | inactive: 10.1%
COc1ccc2c(c1)c(C(=O)N/N=C/c1ccccc1Cl)c(C)n2C | active: 55.8%
CC1CN(c2nc3ccccc3nc2SCC(=O)Nc2cccc(C(F)(F)F)c2)CC(C)O1 (centres undefined) | inactive: 18.2%

SMILES | activation
C=CCn1c(-c2cc(-c3ccccc3)sc2N)n[nH]c1=S | active: 174%
CC(C)c1ccc(Nc2ncccc2C(=O)O)cc1 | inconclusive: 51.3%
COc1ccc(N=C2NC(=O)/C(=C\C=C\c3ccco3)S2)cc1 | active: 124%
COc1ccccc1NC(=S)NNC(=O)c1ccccc1 | inconclusive: 54.4%
CCOc1ccc(C2=Nc3ccc(Br)cc3C(c3ccc(N4CCOCC4)cc3)=NN2)cc1 | active: 57.8%
Oc1ccc2oc3c(c2c1C=NCc1ccncc1)CCCC3 | inactive: -1.98%
O=C(/C=C/c1ccccc1[N+](=O)[O-])Nc1ccccc1 | inconclusive: 51.4%
CCCc1nn(C)c(C(=O)Nc2ccc3ccccc3c2)c1Cl | inconclusive: 52.6%
Cc1ccccc1NC(=O)CSc1ccc2nnc(-c3ccccn3)n2n1 | inconclusive: 50.4%
CC(=O)c1ccc(N2CCN(C(=O)c3cc4c(s3)CCCC4)CC2)cc1 | inactive: 8.3%
O=C(N/N=C/c1sc(=O)n(-c2ccccc2)c1Cl)c1ccccc1 | active: 66.1%
O=C1c2ccccc2C(Nc2ccc(Cl)cn2)N1Cc1ccccc1 (centres undefined) | inconclusive: 52.9%
COC(=O)c1c(NC(=O)c2ccccc2[N+](=O)[O-])sc2c1CC(C)(C)NC2(C)C | inactive: 5.09%
COC(=O)C1=C(COc2ccccc2)NC(=O)NC1c1ccc(Br)cc1 (centres undefined) | inconclusive: 50.2%
CC(C)c1ccc(NC(=O)CSc2nc3ncccc3[nH]2)cc1 | inactive: 43.7%
O=C(c1cc(-c2ccccc2)on1)N1CCCCCC1 | inconclusive: 50.7%
COCCCNc1oc(/C=C/c2ccccc2)nc1C#N | inconclusive: 51%
CC(C)OP(=O)(OC(C)C)/C(C=O)=N\Nc1ccc([N+](=O)[O-])cc1 | inactive: -8.96%
O=C1CCN(C(=O)Nc2ccccc2Cl)N1 | inconclusive: 50.3%
Cc1ccccc1S(=O)(=O)Nc1nc2ccccc2nc1N1CCc2ccccc2C1 | active: 71.2%
O=C(NC1=NCCS1)c1csc2ccccc12 | inconclusive: 54.6%
COc1ccc(C=O)cc1CSc1ncccc1C(=O)O | inconclusive: 51.5%
O=[N+]([O-])/C=C/c1ccc2c(ccn2Cc2ccccc2)c1 | inconclusive: 70.8%
Nc1c(-c2cccs2)cnc2c(-c3ccc(F)cc3)cnn12 | inconclusive: 50.4%

SMILES | activation
Cc1ccccc1NC(=O)CSc1nc(Nc2ccccc2)nc(N2CCOCC2)n1 | active: 73.9%
O=C(/C=C/Sc1ncn[nH]1)c1ccc(Cl)cc1 | inconclusive: 96.6%
Cc1ccc(NC(=O)c2ccc(CSc3nnc(C)s3)cc2)cc1 | inconclusive: 54.5%
Cc1ccccc1SCCNC(=O)c1ccccc1Br | inconclusive: 51%
Brc1ccc2c(c1)C(c1cccnc1)=NNC(c1cccs1)=N2 | active: 64%
O=C(Nc1ccccc1)c1cc2ccc3ccccc3c2s1 | inconclusive: 50.4%
Cc1ccc2nc(-c3ccc(SCC(=O)N4CCc5ccccc54)nc3)[nH]c2c1 | active: 102%
Oc1ccccc1/C=N/Nc1ncc(Br)cn1 | inconclusive: 50.7%
O=C(O)C=C1CCN(c2ncc(C(F)(F)F)cc2Cl)CC1 | inactive: 37.9%
Cc1cc(C)n(CCN(C)C(=O)CCc2nnc(CCC3CCCCC3)o2)n1 | inconclusive: 52.9%
COc1ccc(/C=N/Nc2nccnc2Cl)cc1 | inactive: -4.89%
Cc1ccc(CSCCNC(=O)CSCc2ccc([N+](=O)[O-])cc2)cc1 | inactive: 11.5%
Cc1nn(-c2nc(-c3ccco3)cc(C(F)(F)F)n2)c(C)c1Br | inactive: 8.4%
CC(=O)Nc1ccc2nc(NC(=O)c3ccc([N+](=O)[O-])s3)sc2c1 | inactive: 7.09%
Cc1ccc(S(=O)(=O)N(C)C)cc1NS(=O)(=O)c1ccc(Cl)s1 | inconclusive: 51.2%
COCCCNC(=O)CCn1c(=O)c2ccccc2n(CC(=O)Nc2cc(Cl)ccc2C)c1=O | active: 82.6%
Nc1ccc(S(=O)(=O)N2CCC(Cc3ccccc3)CC2)cc1 | inactive: -63.9%
O=C(NC1CCCC1)C(c1ccncc1)N(C(=O)c1ccco1)c1ccc(Cl)cc1 (centres undefined) | inconclusive: 57.3%
COc1ccccc1Nc1ccc(NS(=O)(=O)c2ccc(C(C)=O)cc2)cc1 | inconclusive: 51.6%
Cn1c(=O)c2c(nc(NCCO)n2C)n(C)c1=O | inconclusive: 50.9%
OC[C@@H](O)C1OC2NC(=S)OC2C1O (some centres undefined) | inconclusive: 50%
O=C1c2ccccc2NC2(CCCC2)N1N=C1CCCC1 | inactive: 32.2%

Reference: PubChem BioAssay AID504408 (Broad Institute, 2011)
